Assay results as given in US20180085330A1, “Dose Adjustment” (AbbVie Inc., priority 2016, published 2018).

Assay: Drug interaction studies: pharmacokinetic parameters of coadministered drug in the presence of glecaprevir/pibrentasvir
Type: in vivo, human
Conditions: atorvastatin 10 mg once daily; GLE/PIB 400/120 mg once daily
Description: Drug interaction studies were performed with glecaprevir/pibrentasvir and other drugs that are likely to be coadministered and with drugs commonly used as probes for pharmacokinetic interactions.

With `CC(C)c1c(C(=O)Nc2ccccc2)c(-c2ccccc2)c(-c2ccc(F)cc2)n1CC[C@@H](O)C[C@@H](O)CC(=O)O` [atorvastatin] as the compound, how does the “Central Value Ratio (90% CI) AUC” value read?
Its value is 8.28.

What about the “Central Value Ratio (90% CI) Cmax” value of the same compound?
Its value is 22.0.
